# Article doi:10.1101/2020.11.04.368498
# Sequences of proteins named here, by UniProt entry; tags and fusion partners are left off.
# UniProt P26599: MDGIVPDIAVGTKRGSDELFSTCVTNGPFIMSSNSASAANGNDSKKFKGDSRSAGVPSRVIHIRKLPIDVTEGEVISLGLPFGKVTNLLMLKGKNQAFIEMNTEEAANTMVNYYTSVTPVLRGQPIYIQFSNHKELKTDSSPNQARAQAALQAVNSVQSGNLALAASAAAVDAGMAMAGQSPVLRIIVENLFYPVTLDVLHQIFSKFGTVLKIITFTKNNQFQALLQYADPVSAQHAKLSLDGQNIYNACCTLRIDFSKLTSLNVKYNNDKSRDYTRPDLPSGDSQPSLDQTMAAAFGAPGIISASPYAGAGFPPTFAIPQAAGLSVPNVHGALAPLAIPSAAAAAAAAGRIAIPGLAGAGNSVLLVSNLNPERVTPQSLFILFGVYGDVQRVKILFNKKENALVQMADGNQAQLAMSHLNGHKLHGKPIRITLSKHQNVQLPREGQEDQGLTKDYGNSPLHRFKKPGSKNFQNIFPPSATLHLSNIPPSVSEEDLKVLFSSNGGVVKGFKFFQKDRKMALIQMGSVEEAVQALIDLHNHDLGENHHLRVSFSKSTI
# UniProt P17844: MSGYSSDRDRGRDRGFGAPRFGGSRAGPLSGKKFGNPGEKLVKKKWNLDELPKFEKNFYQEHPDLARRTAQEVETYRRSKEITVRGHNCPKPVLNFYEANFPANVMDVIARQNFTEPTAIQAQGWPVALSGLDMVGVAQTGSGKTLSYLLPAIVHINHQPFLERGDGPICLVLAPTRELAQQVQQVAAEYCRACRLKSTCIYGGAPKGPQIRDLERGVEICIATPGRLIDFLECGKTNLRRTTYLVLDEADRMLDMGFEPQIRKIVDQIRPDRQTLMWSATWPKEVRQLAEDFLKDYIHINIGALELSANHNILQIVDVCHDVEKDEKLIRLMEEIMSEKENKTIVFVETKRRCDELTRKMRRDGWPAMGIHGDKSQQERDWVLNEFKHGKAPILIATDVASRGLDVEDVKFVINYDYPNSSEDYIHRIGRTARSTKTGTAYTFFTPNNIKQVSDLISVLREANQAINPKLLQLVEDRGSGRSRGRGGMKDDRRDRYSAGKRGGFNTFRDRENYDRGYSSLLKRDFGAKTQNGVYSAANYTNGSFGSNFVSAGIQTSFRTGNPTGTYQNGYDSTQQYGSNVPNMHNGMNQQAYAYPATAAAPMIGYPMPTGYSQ
# UniProt O43143: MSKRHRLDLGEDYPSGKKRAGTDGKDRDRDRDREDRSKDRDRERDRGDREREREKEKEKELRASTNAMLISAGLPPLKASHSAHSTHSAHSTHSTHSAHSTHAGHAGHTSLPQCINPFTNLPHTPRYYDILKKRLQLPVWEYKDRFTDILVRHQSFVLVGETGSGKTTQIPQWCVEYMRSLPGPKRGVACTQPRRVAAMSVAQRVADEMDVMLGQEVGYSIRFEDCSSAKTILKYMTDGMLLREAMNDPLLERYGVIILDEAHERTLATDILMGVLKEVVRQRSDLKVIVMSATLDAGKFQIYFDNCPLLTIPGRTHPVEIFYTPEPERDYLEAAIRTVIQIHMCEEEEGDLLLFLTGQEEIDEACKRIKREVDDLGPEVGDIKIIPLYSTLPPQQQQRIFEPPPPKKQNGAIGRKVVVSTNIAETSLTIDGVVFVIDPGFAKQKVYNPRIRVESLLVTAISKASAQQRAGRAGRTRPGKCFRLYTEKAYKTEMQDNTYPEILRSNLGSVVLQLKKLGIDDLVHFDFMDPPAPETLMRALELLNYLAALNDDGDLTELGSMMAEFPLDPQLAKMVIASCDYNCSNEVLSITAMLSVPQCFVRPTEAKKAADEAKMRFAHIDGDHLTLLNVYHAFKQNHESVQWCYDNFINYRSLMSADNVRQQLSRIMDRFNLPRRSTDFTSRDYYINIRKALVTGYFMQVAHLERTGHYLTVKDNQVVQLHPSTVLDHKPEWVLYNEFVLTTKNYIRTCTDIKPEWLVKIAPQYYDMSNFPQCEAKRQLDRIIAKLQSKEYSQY
# UniProt P62140: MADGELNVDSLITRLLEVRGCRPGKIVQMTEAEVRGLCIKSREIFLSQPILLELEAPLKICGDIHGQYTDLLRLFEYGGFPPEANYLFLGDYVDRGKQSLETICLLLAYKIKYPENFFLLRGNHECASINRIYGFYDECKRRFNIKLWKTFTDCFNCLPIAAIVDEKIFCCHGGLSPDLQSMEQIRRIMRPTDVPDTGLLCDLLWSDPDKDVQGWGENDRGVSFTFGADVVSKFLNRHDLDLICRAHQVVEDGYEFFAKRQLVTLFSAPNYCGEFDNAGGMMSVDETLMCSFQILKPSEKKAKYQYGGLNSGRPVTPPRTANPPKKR
# UniProt P38159: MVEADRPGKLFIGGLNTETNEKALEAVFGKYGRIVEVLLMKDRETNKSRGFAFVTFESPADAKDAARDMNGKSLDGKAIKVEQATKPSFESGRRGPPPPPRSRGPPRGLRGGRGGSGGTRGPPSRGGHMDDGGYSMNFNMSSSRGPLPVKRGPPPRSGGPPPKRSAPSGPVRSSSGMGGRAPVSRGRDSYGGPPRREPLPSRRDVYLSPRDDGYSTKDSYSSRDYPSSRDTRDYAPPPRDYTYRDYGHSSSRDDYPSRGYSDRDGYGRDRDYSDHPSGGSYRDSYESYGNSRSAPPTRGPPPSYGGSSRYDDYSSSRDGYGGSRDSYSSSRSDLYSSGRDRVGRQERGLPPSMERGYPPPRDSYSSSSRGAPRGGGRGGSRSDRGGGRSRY
# UniProt Q99459: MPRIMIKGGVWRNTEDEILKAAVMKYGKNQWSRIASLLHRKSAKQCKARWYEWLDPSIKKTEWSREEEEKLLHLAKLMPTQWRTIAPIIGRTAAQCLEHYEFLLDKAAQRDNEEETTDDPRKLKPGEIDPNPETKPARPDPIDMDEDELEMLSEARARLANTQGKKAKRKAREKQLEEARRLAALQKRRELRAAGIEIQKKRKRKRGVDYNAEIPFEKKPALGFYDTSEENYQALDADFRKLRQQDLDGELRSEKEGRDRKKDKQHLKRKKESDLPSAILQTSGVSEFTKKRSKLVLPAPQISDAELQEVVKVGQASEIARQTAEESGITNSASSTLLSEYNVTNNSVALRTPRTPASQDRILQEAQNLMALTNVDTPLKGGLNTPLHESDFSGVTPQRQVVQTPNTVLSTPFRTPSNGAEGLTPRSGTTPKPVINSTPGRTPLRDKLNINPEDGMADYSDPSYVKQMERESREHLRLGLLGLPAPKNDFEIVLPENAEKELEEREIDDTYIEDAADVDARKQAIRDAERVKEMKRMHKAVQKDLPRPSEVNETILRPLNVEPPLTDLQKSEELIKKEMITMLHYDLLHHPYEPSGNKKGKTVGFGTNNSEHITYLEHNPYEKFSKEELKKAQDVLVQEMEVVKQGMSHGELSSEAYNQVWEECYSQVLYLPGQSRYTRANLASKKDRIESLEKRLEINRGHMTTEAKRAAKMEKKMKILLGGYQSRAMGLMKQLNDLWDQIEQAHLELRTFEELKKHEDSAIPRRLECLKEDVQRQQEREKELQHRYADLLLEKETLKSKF
# UniProt Q07955: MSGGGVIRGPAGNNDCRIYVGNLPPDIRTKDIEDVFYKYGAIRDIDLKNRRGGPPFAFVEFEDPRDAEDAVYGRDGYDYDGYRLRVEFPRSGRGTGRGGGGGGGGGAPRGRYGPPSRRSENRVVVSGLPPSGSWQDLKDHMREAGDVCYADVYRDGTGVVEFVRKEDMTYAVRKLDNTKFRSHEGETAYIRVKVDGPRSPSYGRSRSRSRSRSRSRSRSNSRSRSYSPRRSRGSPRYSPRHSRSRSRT
# T1: GFP-tagged version of human Aurora-A (human), O14965
# T1 chain: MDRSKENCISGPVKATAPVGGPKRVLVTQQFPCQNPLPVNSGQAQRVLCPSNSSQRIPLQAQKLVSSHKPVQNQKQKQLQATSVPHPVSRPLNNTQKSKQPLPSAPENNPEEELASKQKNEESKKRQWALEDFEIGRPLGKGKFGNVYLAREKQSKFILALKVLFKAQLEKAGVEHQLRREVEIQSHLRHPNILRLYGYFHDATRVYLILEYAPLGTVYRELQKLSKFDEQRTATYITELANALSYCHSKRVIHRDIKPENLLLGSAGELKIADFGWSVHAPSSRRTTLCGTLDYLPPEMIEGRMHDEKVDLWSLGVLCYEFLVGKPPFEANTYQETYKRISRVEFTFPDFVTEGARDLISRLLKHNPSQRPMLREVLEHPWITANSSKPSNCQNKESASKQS
# Target: GFP-tagged version of human Aurora-A (human) (UniProt O14965)
# Experiment: affinity purification with mass spectrometry
# Conditions: not given
row,binding,Molecule
1,binds,PTBP1 (endogenous) (from UniProt P26599 1-557)
2,binds,DDX5 (from UniProt P17844 1-614) (enzyme)
3,binds,DHX15 (from UniProt O43143 1-795) (enzyme)
4,binds,PPP1CB (from UniProt P62140 1-327) (enzyme)
5,binds,RBMX (from UniProt P38159 1-391)
6,binds,CDC5L (from UniProt Q99459 1-802)
7,binds,SRSF1 (endogenous) (from UniProt Q07955 1-248)
8,binds,HNRNPK (from UniProt P61978 1-463)

# Target: T1, GFP-tagged version of human Aurora-A …
# Experiment: affinity purification with mass spectrometry
# Conditions: remark: other sources report otherwise
row,binding,Molecule
1,binds,"SRSF3 (endogenous), P84103 1-164 (protein) MHRDSCPLDCKVYVGNLGNNGNKTELERAFGYYGPLRSVWVARNPPGFAFVEFEDPRDAADAVRELDGRTLCGCRVRVELSNGEKRSRNRGPPPSWGRRPRDDYRRRSPPPRRRSPRRRSFSRSRSRSLSRDRRRERSLSRERNHKPSRSFSRSRSRSRSNERK"

# Target: GFP-tagged version of human Aurora-A (human) (UniProt O14965)
# Experiment: affinity purification with mass spectrometry
# Conditions: not given
# Remark: another data set of the same source
row,binding,Molecule
1,binds,"SRSF7 (endogenous) (protein, UniProt Q16629 1-238) MSRYGRYGGETKVYVGNLGTGAGKGELERAFSYYGPLRTVWIARNPPGFAFVEFEDPRDAEDAVRGLDGKVICGSRVRVELSTGMPRRSRFDRPPARRPFDPNDRCYECGEKGHYAYDCHRYSRRRRSRSRSRSHSRSRGRRYSRSRSRSRGRRSRSASPRRSRSISLRRSRSASLRRSRSGSIKGSRYFQSPSRSRSRSRSISRPRSSRSKSRSPSPKRSRSPSGSPRRSASPERMD"
2,binds,"PPP6C (enzyme, UniProt O00743 1-305) MAPLDLDKYVEIARLCKYLPENDLKRLCDYVCDLLLEESNVQPVSTPVTVCGDIHGQFYDLCELFRTGGQVPDTNYIFMGDFVDRGYYSLETFTYLLALKAKWPDRITLLRGNHESRQITQVYGFYDECQTKYGNANAWRYCTKVFDMLTVAALIDEQILCVHGGLSPDIKTLDQIRTIERNQEIPHKGAFCDLVWSDPEDVDTWAISPRGAGWLFGAKVTNEFVHINNLKLICRAHQLVHEGYKFMFDEKLVTVWSAPNYCYRCGNIASIMVFKDVNTREPKLFRAVPDSERVIPPRTTTPYFL"

# No constants are given. Whether binding was seen depends on the method and setting. In cells and extracts the contact can be indirect. These calls come from enrichment with a bait or labelling near it, and not all partners need be listed. For some assays here: Tags and fused reporters may be left off the sequences shown.
